Experimental data from patent US5942489A (The Administrators of the Tulane Educational Fund, priority 1996, dated 1999).
Some peptides are written in HELM: one residue between dots, names in brackets for other building blocks, links after the first $. For part of these data: One purity is given for all peptides; the source may state it once.

Key:
[1] = general procedure: Boc solid-phase peptide synthesis; BHA resin; DIC (or BOP); preformed HOBt esters for Boc-Asn-OH and Boc-Gln-OH; HBTU/HOBt/DIE; settings: whole synthesis, scale 0.044 mmole
[2] = general procedure: Boc solid-phase peptide synthesis; benzhydrylamine (BHA) resin (Bachem) or MBHA; Boc-Agm-SPA-aminomethyl resin (California Peptide Research); DIC (or BOP); preformed HOBt esters for Boc-Asn-OH and Boc-Gln-OH; HBTU/HOBt/DIE; settings: whole synthesis, 220 and 280 nm, scale of the general procedure 0.044 mmole (100 mg BHA resin), 0.06 mmole (200 mg Agm resin)

| Substance | crude mass [1] | final HPLC purity [2] |
| --- | --- | --- |
| PEPTIDE1{[PhAc].Y.[dR].D.A.I.[Phe(pCl)].T.S.S.Y.R.K.V.L.A.Q.E.S.A.R.K.L.L.Q.D.I.[Nle].S.R.[am]}$PEPTIDE1,PEPTIDE1,18:R3-22:R3$$$V2.0 | 13.7 mg | >95% |
| PEPTIDE1{[PhAc].Y.[dR].D.A.I.[Phe(pCl)].T.N.S.Y.R.K.V.L.A.Q.L.S.A.R.K.L.L.Q.D.I.[Nle].S.R.[am]}$$$$V2.0 | 98 mg | >95% |
| PEPTIDE1{[Ibu].Y.[dR].D.A.I.[Phe(pCl)].T.N.S.Y.R.K.V.L.[Abu].Q.L.S.A.R.K.L.L.Q.D.I.[Nle].S.[Cit].[am]}$$$$V2.0 | 34 mg | >95% |
